From paper doi:10.1101/2024.06.17.598829 (bioRxiv, 2024)
No constants are given. Whether binding was seen depends on the method and setting. Binding seen in cells or lysates may run through a third protein. A yes stands for co-enrichment or nearness to the bait. Other partners may have been found. No binding means not detected with the bait. Where a sequence is shown, tags or fusion partners need not be part of it.

Biological target: T1, GFP:NPH3 expressed in Arabidopsis nph3-7 seedlings (Arabidopsis thaliana) (UniProt Q9FMF5)
T1 sequence: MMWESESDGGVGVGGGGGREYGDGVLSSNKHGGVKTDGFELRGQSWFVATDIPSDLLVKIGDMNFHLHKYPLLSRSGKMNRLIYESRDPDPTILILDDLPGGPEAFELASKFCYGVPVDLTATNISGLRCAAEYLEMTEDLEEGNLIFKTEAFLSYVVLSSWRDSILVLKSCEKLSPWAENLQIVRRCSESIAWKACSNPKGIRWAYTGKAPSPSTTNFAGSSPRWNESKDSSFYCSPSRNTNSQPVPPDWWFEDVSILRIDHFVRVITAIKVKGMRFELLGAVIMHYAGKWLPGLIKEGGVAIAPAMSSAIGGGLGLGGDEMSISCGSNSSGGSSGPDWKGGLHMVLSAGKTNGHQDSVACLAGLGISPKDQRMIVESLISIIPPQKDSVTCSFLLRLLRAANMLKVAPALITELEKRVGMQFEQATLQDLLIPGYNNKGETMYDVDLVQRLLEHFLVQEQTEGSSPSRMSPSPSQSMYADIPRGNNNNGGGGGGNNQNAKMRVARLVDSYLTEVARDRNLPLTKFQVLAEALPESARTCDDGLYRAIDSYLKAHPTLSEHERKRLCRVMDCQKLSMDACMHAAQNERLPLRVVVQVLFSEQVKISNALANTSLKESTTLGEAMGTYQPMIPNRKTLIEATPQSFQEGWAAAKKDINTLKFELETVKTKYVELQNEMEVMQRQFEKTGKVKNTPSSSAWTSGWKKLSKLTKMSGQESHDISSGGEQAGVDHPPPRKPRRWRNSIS
Test: affinity purification with mass spectrometry

CULLIN3
binding: no binding
